Experimental data: PubChem BioAssay AID1259300 (Sanger Institute, 2017)

- Test: 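siRNA screen of kinases and common colorectal cancer mutant genes, alone or with drugs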 (primary screen)
- Cells: HCT15 colorectal cancer cells
- Knock-down reagent: siRNA pool against human genes
- Challenge: anchor drug or DMSO vehicle added 24 h after seeding: BYL719 1 µM, cetuximab 5 µg/ml, trametinib 10 nM; drug doses chosen to barely affect viability alone
- Measurement: 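Replicate-mean viability relative to non-targeting pool control with robust z-score for knock-down without drug; per-drug synergy scores for BYL719 (1 µM), cetuximab (5 µg/ml), trametinib (10 nM)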
- Direction: viability z-score, siRNA alone: higher = more viable cells after knock-down
- Hit rule: 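a knock-down without drug that drives the robust viability z-score under -3 is active, i.e. essential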
- Calls: active = essential: knock-down alone lowers viability (z below -3); inactive = no strong viability loss with knock-down alone
Shown is an unselected part of 794 reagents tested. 18 of all reagents (2.3%) were called active. 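Calls rest on knock-down alone, not drug synergy; depositor treated synergy scores above 0.15 as synergistic; drug doses alone had little viability effect.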 Unmarked entries are inactive. Further read-outs or replicates are left out here. Reagent sequences are not shown. Not stated in the record: the amount of reagent, the time to read-out.

The first 3 records as a preview:
gene symbol | viability z-score, siRNA alone
SBK1 | -0.566
HUS1 | 0.393
LIMK2 | -0.45

The list itself, from the first entry:
gene symbol | viability z-score, siRNA alone
SBK1 | -0.566
HUS1 | 0.393
LIMK2 | -0.45
MAP4K4 | 0.28
ATRX | 0.625
RPS6KB2 | -0.848
PRKD1 | 0.625
NRBP1 | 0.625
MINK1 | -0.945
GUCY2C | 0.625
PIK3CD | 0.625
ADK | -0.445
MPP2 | 0.625
BMX | 0.625
PKN3 | 0.225
PRKCZ | 0.224
HIPK2 | 0.307
GNAS | 0.202
CDK11A | -4.13 (active)
PBK | -1.19
MPP1 | 0.625
MAPK8 | 0.625
PRKG1 | -0.596
CDKN1B | 0.402
PFKL | -0.597
CKS2 | 0.625
SIK2 | -0.339
ROCK1 | 0.625
PHKG1 | 0.625
CDKN2B | 0.625
ITK | -0.493
PRKCSH | 0.182
IDH2 | 0.0836
ETNK2 | -2.04
